Publication PMC10058949 (Pharmaceutics, 2023)

Test: general procedure: Fmoc solid-phase peptide synthesis
Settings: whole synthesis, RP-HPLC with UV chromatograms; MALDI-TOF MS, scale of the general procedure 100 mg resin

| Substance | final HPLC purity |
| --- | --- |
| DOTA-(DGlu)6-Ala-Tyr-Gly-Trp-(N-Me)Nle-Asp-1Nal-NH2 | ≥98% |
| DOTA-(GABOB)2-βAla-Trp-(N-Me)Nle-Asp-1Nal-NH2 | ≥98% |
